Here are results for 1 compound from ChEMBL document CHEMBL1134322, “A novel approach for the development of selective Cdk4 inhibitors: library design based on locations of Cdk4 specific amino acid residues” (J Med Chem, 2001).

Chains of the proteins cited; added tags and fusions are not shown.
UniProt P06493, whole entry: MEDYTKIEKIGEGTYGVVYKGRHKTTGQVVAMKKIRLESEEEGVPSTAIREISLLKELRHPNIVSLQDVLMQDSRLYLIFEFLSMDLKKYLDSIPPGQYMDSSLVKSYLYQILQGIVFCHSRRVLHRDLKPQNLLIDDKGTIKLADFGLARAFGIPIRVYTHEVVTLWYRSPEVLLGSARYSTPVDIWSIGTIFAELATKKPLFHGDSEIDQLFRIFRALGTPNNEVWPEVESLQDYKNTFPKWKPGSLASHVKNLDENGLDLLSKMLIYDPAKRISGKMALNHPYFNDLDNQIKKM

The target in the experiment is Cyclin-dependent kinase 1/cyclin B (Homo sapiens, UniProt P06493). Kind of experiment: Inhibition of cyclin B-CDK1 ser/thr kinase. Type of experiment: protein-complex assay.

Regarding `O=C(Nc1ccccn1)Nc1cccc2c1[C@H]1CCCN1C2=O`, inhibition was half-maximal at 0.12 µM (IC50). That is a sub-micromolar value.
